These are yes or no findings as the source states them, for the method shown. Binding seen in cells or lysates may run through a third protein. Some binding calls cover weakened binding; strength is not graded here. Where a sequence is shown, tags or fusion partners need not be part of it.
Tests used:
[1] = target: T1, ΔM-Lip-V5 (mouse lipin 1α residues 1–891 Δ458–565, C-terminal V5-His) (mouse) (UniProt Q91ZP3); assay: co-IP; Hepa1-6 cells co-transfected with V5-tagged lipin 1 constructs and BirA*-HA-tagged lipins; lysis in 0.1% NP-40; IP with anti-V5, blot with anti-HA
T1 sequence: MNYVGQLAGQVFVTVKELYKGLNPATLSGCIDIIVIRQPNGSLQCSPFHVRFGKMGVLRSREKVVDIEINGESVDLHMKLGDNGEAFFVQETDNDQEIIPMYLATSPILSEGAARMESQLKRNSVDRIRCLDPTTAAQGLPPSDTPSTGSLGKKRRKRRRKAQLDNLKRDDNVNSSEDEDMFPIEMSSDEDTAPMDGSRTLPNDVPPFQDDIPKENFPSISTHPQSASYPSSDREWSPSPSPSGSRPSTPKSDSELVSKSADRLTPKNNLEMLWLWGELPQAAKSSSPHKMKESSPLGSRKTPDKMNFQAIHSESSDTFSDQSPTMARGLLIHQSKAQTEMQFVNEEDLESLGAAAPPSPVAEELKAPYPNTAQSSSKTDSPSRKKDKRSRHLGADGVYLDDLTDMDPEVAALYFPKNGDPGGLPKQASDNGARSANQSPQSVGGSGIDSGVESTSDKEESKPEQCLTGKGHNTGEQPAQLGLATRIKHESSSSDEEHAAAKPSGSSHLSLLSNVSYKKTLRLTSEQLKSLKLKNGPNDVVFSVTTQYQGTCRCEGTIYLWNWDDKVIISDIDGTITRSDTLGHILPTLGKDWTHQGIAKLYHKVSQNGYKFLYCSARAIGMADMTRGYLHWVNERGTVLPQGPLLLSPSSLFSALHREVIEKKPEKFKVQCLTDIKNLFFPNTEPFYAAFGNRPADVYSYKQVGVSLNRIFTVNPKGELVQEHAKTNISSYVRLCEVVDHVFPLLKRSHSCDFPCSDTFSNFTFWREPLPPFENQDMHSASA

[2] = target: T2, wild-type lipin 1-V5 (full-length mouse lipin 1α, residues 1–891, C-terminal V5-His) (mouse) (UniProt Q91ZP3); assay: as above
T2 sequence: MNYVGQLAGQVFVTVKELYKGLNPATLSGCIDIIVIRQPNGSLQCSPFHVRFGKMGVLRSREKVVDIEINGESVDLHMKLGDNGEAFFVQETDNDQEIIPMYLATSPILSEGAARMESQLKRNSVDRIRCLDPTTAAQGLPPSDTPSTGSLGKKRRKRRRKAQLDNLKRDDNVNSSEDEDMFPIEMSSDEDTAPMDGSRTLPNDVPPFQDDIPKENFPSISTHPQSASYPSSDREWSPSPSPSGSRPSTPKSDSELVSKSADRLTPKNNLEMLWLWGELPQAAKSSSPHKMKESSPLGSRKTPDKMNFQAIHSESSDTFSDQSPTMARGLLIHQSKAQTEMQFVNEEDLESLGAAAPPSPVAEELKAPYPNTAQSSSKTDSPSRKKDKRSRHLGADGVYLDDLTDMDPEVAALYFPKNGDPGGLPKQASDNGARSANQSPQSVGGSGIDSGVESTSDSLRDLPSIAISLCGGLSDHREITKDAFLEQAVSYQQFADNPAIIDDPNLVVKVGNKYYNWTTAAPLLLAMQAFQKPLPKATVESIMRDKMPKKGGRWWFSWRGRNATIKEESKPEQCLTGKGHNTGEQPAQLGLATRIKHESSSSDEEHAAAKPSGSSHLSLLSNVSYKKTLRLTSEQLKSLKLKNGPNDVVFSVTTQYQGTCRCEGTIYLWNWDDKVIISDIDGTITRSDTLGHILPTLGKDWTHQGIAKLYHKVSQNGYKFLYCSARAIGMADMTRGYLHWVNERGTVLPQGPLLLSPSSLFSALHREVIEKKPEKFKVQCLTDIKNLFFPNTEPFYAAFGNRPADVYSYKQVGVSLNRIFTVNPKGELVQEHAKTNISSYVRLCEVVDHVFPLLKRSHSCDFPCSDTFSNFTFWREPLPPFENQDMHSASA

[3] = target: T3, ΔM-Lip^xtal-V5 (mouse lipin 1α residues 1–891 Δ458–548, C-terminal V5-His) (mouse) (UniProt Q91ZP3); assay: as above
T3 sequence: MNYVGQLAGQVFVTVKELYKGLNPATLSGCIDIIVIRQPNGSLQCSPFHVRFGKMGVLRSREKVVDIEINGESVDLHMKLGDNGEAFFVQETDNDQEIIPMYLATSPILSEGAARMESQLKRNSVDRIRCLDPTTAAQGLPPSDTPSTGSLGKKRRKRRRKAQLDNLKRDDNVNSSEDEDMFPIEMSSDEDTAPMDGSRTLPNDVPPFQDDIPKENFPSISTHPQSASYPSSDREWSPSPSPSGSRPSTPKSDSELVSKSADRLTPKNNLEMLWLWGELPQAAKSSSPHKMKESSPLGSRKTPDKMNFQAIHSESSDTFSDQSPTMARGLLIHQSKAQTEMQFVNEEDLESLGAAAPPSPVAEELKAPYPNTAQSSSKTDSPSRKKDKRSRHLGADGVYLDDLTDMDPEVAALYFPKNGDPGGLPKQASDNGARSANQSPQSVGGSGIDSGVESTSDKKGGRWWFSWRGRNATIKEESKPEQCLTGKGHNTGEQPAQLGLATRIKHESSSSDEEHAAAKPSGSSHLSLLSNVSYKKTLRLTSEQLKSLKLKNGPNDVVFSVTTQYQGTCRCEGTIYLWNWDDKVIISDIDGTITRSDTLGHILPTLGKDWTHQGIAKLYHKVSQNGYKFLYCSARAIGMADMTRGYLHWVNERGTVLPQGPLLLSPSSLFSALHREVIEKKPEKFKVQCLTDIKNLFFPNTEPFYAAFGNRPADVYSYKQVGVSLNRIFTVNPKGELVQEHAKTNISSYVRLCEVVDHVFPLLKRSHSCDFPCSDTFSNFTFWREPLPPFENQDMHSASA

[4] = target: T1, ΔM-Lip-V5 (mouse lipin 1α residues 1–891 Δ458–565, C-terminal V5-His) (mouse); assay: co-IP; independent experiments with other epitope tags: V5-tagged full-length or ΔM-Lip lipin 1 with lipin 1-FLAG or lipin 3-Myc; IP with anti-V5, blot with anti-FLAG or anti-Myc
[5] = target: T2, wild-type lipin 1-V5 (full-length mouse lipin 1α, residues 1–891, C-terminal V5-His) (mouse); assay: as above

B1: lipin 2-BirA*-HA (protein, UniProt Q99PI5 1-893)
chain: MNYVGQLAGQVLVTVKELYKGINQATLSGCIDVVVVRQQDGSYQCSPFHVRFGKLGVLRSKEKVIDIEINGSAVDLHMKLGDNGEAFFVEETEEEYEKLPAYLATSPIPTEDQFFKHIETPLVKSSGNERPAQSSDVSHTLESEAVFTQSSVKKKKRRRKKCKQDNRKEEQAASPVAEDVGDVGVSSDDEKRAQAARGSSNASLKEEDYKEPSLFHSGDNYPLSDGDWSPLETTYPQAVCPKSDSELEVKPSESLLRSEPHMEWTWGGFPESTKVTKRERYDYHPRTATITPSENTHFRVIPSEDSLIREVEKDATVEDTTCTIVKPKPRALCKQLSDAASTELPESPLEAPQISSLLDADPVPSPSAEAPSEPKPAAKDSPTKKKGVHKRSQHQGPDDIYLDDLKALEPEVAALYFPKSDTDPGSRQWPESDTFSGSQSPQSVGSAAADSGTECLSDSAMDLPDVTLSLCGGLSENGEISKEKFMEHIITYHEFAENPGLIDNPNLVIRIYNRYYNWALAAPMILSLQVFQKSLPKATVESWVKDKMPKKSGRWWFWRKKESMIKQLPETKEGKSEVPPANDLPSNAEEPTSARPAENDTSSDEGSQELEESIKVDPITVETLSHCGTASYKKSLRLSSDQIAKLKLHDGPNDVVFSITTQYQGTCRCAGTIYLWNWNDKVIISDIDGTITKSDALGQILPQLGKDWTHQGIARLYHSINENGYKFLYCSARAIGMADMTRGYLHWVNDKGTILPRGPLMLSPSSLFSAFHREVIEKKPEKFKIECLNDIKNLFAPSRQPFYAAFGNRPNDVYAYTQVGVPDCRIFTVNPKGELIQERTKGNKSSYHRLSELVEHVFPLLSKEQNSAFPCPEFSSFCYWRDPIPDLDLDDLA
Q: How did the binding [1] turn out when B1 was run?
A: binds

Q: What about the binding [2] of the same binder?
A: binds

Q: What about the binding [3] of the same binder?
A: binds

B2: lipin 3-BirA*-HA (protein, UniProt Q99PI4 1-848)
chain: MNYVGQLAETVFGTVKELYRGLNPATLSGGIDVLVVRQRDGSFRCSPFHVRFGKLGVLRSREKVVDIEINGEPVDLHMKLGDSGEAFFVQELDSDEEDVPPRLCTSPIPWGGLSGFPSDSQIGTASEPEGLVITGRRKRRRRRKPRRREEDAVDSSSEELEAGAESELTLLEKPTPESPSAQEAEEPSSQPKDIHPYSDGECTPQANLSSGDLMSPKSDSELELRSLEPSPLRAESHMQWVWGRLPKVAKAERPEFSLILESMAEAICALPEEPSPSSSPSEAGVDTLSPPVLHPGVRADTFHPAVEAHCEETAVDSPLAAPESKETKTQNSRGAGHPPATKSWSWTTPESHTPSGHPQVSRGKGSLKRNQHLGPSDIYLDDLPSLDSENVALYFPKSEYGMGARRWSEPSNQKLLESPNPEHIAECTLDSVDKIELSLCGGLADNRDISLEKFTQHMVSYEDLTKNPGLLDDPNLVVKINEKHYNWAVAAPMILSLQAFQKNLPESTVDKLEKEKMPRKGGRWWFSWRRRDFPAEEHSSQREKAATRKQQGEKTEVLSSDDDVPDSPVILEVPPLPSSTPGYVPTYKKSLRLSSDQIRCLNLNEGANDVVFSVTTQYQGTCRCKATIYLWNWDDKVVISDIDGTITKSDALGHILPQLGKDWTHQGITSLYHKIHLNGYKFLYCSARAIGMADLTKGYLQWVSEHGCGLPKGPILLSPSSLFSALHREVIEKKPEVFKVACLSDIQQLFLPQRQPFHAAFGNRPNDVFAYRQVGLPESRIFTVNPRGELIQELIKSHKSTYQRLGEVVELLFPPVVRGPSTDLASPEYSNLSYWRKPLPYVDFEALA
Q: How did the binding [1] turn out when B2 was run?
A: binds

Q: And the binding [2]?
A: binds

Q: What about the binding [3] of the same binder?
A: binds

B3: lipin 3-Myc (protein, UniProt Q99PI4 1-848)
chain: B2 chain
Q: For B3, which binding [4] is on record?
A: binds

Q: What about the binding [5] of the same binder?
A: binds

Source: article PMC8342540, “The middle lipin domain adopts a membrane-binding dimeric protein fold” (Nature Communications, 2021)
